Measured values taken from patent US20120023600A1.
These are yes or no findings as the source states them, for the method shown. Some binding calls cover weakened binding; strength is not graded here.

Chains of the proteins cited; added tags and fusions are not shown. Residues count along the entry.
UniProt O75581, residues 20-1368: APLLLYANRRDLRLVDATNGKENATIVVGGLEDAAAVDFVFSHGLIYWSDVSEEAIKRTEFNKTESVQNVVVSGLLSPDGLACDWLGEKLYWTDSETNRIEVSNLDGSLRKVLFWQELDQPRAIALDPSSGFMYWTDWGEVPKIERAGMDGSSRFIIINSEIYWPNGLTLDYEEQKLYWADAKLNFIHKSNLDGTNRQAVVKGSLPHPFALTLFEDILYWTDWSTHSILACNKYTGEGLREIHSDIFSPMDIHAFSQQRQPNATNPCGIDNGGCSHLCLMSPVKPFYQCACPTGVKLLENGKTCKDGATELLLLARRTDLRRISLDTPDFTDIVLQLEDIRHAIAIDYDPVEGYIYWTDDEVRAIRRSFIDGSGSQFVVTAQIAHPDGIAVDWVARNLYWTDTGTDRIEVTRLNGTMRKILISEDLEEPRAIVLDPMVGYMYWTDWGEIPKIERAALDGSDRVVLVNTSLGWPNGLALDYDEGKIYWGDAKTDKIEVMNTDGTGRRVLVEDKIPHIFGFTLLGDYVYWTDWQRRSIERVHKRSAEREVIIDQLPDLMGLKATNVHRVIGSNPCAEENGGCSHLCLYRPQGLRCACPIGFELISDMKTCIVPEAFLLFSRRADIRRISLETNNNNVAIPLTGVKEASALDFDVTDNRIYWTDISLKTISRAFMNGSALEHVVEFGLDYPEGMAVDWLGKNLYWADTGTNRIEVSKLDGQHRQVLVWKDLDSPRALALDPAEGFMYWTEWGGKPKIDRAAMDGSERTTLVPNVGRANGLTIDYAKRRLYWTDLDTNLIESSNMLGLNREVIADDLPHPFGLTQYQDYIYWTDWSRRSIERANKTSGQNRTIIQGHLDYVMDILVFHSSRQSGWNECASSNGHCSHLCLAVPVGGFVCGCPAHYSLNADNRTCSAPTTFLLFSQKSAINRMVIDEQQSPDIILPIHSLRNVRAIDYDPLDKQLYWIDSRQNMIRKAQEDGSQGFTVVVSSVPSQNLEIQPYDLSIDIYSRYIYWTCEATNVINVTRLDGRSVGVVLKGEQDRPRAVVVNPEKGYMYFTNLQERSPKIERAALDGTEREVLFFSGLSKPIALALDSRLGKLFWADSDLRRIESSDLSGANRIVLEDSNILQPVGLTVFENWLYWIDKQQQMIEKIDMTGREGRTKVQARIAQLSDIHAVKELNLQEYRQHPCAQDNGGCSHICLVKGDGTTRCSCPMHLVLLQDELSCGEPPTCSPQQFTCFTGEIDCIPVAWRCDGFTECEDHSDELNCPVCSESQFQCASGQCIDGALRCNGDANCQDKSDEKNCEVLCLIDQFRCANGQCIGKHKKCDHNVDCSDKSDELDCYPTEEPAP

Biological target: recombinant LRP6 (R&D Systems Cat#1505-LR) (UniProt O75581)
Assay: ELISA; plate coated with 1 µg/ml recombinant LRP6, 500 ng/ml rhDKK1 with hIgG1 control, bound DKK1 detected with anti-DKK1 antibody

B1: recombinant human DKK1 (ligand)
chain: TLNSVLNSNAIKNLPPPLGGAAGHPGSAVSAAPGILYPGGNKYQTIDNYQPYPCAEDEECGTDEYCASPTRGGDAGVQICLACRKRRKRCMRHAMCCPGNYCKNGICVSSDQNHFRGEIEETITESFGNDHSTLDGYSRRTTLSSKMYHTKGQEGSVCLRSSDCASGLCCARHFWSKICKPVLKEGQVCTKHRRKGSHGLEIFQRCYCGEGLSCRIQKDHHQASNSSRLHTCQRH
With B1 the binding was “binds”.
